Test results from publication PMC3161108.
These are yes or no findings as the source states them, for the method shown. Binding seen in cells or lysates may run through a third protein. A result given as binding can be weak or reduced; the word gives no strength. Sequences can lack the tags named with a protein.

T1: HA-tagged zebrafish RNR M1 subunit (R1) (zebrafish) (UniProt P79732)
T1 sequence: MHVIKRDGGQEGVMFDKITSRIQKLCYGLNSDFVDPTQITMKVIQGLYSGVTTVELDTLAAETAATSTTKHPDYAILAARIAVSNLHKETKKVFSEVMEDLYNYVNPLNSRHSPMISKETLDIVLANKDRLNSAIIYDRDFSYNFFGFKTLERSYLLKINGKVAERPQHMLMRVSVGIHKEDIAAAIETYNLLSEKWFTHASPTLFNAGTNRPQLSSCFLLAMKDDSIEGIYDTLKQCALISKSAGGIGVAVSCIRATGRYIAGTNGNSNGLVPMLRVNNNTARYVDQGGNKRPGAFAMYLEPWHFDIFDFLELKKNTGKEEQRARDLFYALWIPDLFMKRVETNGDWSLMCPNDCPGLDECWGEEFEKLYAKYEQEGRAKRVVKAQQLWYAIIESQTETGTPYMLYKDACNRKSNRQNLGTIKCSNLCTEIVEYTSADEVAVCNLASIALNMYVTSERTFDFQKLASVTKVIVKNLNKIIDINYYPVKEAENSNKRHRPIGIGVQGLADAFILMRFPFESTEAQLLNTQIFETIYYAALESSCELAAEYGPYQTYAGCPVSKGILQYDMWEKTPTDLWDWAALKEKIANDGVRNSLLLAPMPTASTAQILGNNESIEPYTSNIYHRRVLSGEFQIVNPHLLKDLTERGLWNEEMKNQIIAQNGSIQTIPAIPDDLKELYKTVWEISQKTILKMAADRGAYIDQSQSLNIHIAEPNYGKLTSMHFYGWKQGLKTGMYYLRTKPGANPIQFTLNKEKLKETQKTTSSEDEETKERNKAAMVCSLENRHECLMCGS

B1: HA-tagged zebrafish RNR M1 subunit (R1) (protein, UniProt P79732 1-794)
chain: T1 sequence

What was measured:
Experiment in all cases: co-IP; 293T cells co-transfected with HA-R1 and one of the Flag-R2 isoforms; at 45 h protein extracts immunoprecipitated with anti-HA or anti-Flag antibodies; Western blot with the other antibody
[1] = target: T1, HA-tagged zebrafish RNR M1 subunit (R1) (zebrafish)
[2] = target: Flag-tagged zebrafish Δ52R2 (N-terminally truncated R2 isoform encoded by R2_v3d) (zebrafish)
[3] = target: Flag-tagged zebrafish Δ29R2 (N-terminally truncated R2 isoform encoded by R2_v3c) (zebrafish)

| Molecule | binding [1] | binding [2] | binding [3] |
| --- | --- | --- | --- |
| Flag-tagged zebrafish Δ29R2 (N-terminally truncated R2 isoform encoded by R2_v3c) | binds | – | – |
| Flag-tagged zebrafish Δ52R2 (N-terminally truncated R2 isoform encoded by R2_v3d) | binds | – | – |
| B1 | – | binds | binds |
